Test results published in paper PMC3931654.
Results are given in words; binding and its absence hold for the method and conditions named. In cells and extracts the contact can be indirect. Some entries that bind do so weakly or less than the wild type.

Target: T1, Themis (thymocyte-expressed molecule involved in selection), endogenous wild type (mouse (endogenous in thymocytes)) (UniProt Q8BGW0)
T1 sequence: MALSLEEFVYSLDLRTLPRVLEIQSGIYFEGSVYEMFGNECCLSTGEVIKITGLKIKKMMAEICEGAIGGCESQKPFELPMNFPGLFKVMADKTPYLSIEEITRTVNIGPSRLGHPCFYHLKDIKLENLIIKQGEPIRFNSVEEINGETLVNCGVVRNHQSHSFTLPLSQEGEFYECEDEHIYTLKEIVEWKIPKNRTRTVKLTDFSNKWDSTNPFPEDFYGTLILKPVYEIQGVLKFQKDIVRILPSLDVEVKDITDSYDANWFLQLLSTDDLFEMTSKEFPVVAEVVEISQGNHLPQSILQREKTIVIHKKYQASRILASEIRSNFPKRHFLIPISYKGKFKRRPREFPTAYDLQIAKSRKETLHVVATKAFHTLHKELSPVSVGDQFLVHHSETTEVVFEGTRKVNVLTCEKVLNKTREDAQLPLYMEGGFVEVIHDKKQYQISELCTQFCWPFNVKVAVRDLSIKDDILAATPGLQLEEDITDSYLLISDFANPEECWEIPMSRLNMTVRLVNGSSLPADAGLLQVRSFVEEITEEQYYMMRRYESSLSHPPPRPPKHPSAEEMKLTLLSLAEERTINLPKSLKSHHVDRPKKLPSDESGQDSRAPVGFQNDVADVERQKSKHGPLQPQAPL
Test: co-IP; mouse thymocytes, unstimulated or stimulated with anti-CD3 plus anti-CD4 (Fig. S3: also anti-CD8) antibodies; lysis buffer 50 mM Tris-HCl pH 7.5, 150 mM NaCl, 10 mM MgCl2, 0.5% Nonidet P-40; immunoprecipitated with anti-Themis antibody on protein G-sepharose, immunoblot

B1: LAT (protein, UniProt O54957 1-242)
chain: MEADALSPVGLGLLLLPFLVTLLAALCVRCRELPVSYDSTSTESLYPRSILIKPPQITVPRTPAVSYPLVTSFPPLRQPDLLPIPRSPQPLGGSHRMPSSQQNSDDANSVASYENQEPACKNVDADEDEDDYPNGYLVVLPDSSPAAVPVVSSAPVPSNPDLGDSAFSVESCEDYVNVPESEESAEASLDGSREYVNVSPEQQPVTRAELASVNSQEVEDEGEEEGVDGEEAPDYENLQELN
Which binding does the source give for B1 here?
Its binding is “binds”.
